In article PMC7730581:
No constants are given. Whether binding was seen depends on the method and setting. Binding seen in cells or lysates may run through a third protein. Here binding means that the protein was enriched with, or labelled near, the bait; the list need not be complete. Tags and fused reporters may be left off the sequences shown.

Target: T1, N-terminally His10-tagged LapA (E. coli) (UniProt P0ACV4)
T1 sequence: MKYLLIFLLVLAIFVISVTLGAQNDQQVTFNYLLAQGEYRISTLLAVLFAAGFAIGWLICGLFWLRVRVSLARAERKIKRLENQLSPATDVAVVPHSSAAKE
Test: affinity purification with mass spectrometry; His10-LapA co-expressed with LapB (100 or 500 μM IPTG); IM proteins solubilised with 2% octyl-β-D-glucoside, applied over Ni-NTA beads; eluted proteins resolved on 12% SDS-PAGE and identified by MALDI-TOF

binding: binds
B1: LapB (co-expressed with His10-LapA) (protein, UniProt P0AB58 1-389)
chain: MLELLFLLLPVAAAYGWYMGRRSAQQNKQDEANRLSRDYVAGVNFLLSNQQDKAVDLFLDMLKEDTGTVEAHLTLGNLFRSRGEVDRAIRIHQTLMESASLTYEQRLLAIQQLGRDYMAAGLYDRAEDMFNQLTDETDFRIGALQQLLQIYQATSEWQKAIDVAERLVKLGKDKQRVEIAHFYCELALQHMASDDLDRAMTLLKKGAAADKNSARVSIMMGRVFMAKGEYAKAVESLQRVISQDRELVSETLEMLQTCYQQLGKTAEWAEFLQRAVEENTGADAELMLADIIEARDGSEAAQVYITRQLQRHPTMRVFHKLMDYHLNEAEEGRAKESLMVLRDMVGEKVRSKPRYRCQKCGFTAYTLYWHCPSCRAWSTIKPIRGLDGL
